Most values lie at the floor of the assay. Slopes are relative: functional sequences can read slightly below zero.

The subject of this series is Saccharomyces cerevisiae PS128 hsf1 delta, HSF1(1-493) fusion. The series can be described thus: growth estimate (transactivation domain function in HSF1 fusion, heat-shock survival) (a.u. (slope of normalised read count over time)); higher = stronger growth at 37°C, i.e. more transactivation activity. The conditions noted are these: library: random library.
For the substance NIGGRGGTGASTSVDFPRPY, the growth estimate is less than -0.25.

As for GDASNPI, the growth estimate is less than -0.25.

Consider GYRFCVTSRTMTPRGVREVT, for which the growth estimate is less than -0.25.

For the substance VRRAGRAEFAGGTLLSASCR, the growth estimate is less than -0.25.

In the case of HSPPNLAVYAAHQERTCGQQ, the growth estimate is less than -0.25.

For the substance LCRENYACL, the growth estimate was less than -0.25.

TTCVWAEDGRYQYG: the growth estimate was less than -0.25.

On to SQPAWME, for which the growth estimate was less than -0.25.

On to GDKSGTGVYHDTESVPALWE, for which the growth estimate was less than -0.25.

For the substance VWKNRGVFVAEQLAKSEQAV, the growth estimate was less than -0.25.

With VTQVASSSLVSLIASARYRP, the growth estimate was less than -0.25.

As for RPSILVSYGAPVQTALTIRR, the growth estimate is less than -0.25.

On to PYSG, for which the growth estimate was less than -0.25.

For ASLGNSIGGLTVVNCDFLLT, the growth estimate was less than -0.25.

As for HGSIVLRLWSDENAEQRVRT, the growth estimate is less than -0.25.

As to QLGPTFAFVTAHNGAGRCLQ, the growth estimate was less than -0.25.

NLNYHPDTPIARGGHTGWSG: the growth estimate was less than -0.25.

For the substance GQRRRRRSFTTPPSTPIGI, the growth estimate was less than -0.25.

SRGSPLSPENSVKR: the growth estimate was less than -0.25.

Turning to KLERRQLDLKCLT, the growth estimate is less than -0.25.

As for WTADSGICRLVGWDTPRERP, the growth estimate was less than -0.25.

On to PHHPDCGACLTDWREIPCPE, for which the growth estimate was less than -0.25.

Regarding TSHYQGQALDKTGNMLVEGD, the growth estimate is less than -0.25.

VIQATRATSEPVART: the growth estimate is less than -0.25.

As to VRSHPVVMDAAVNLGSQNPG, the growth estimate is less than -0.25.

Turning to GNSYVGH, the growth estimate was less than -0.25.

For DVWGSK, the growth estimate was less than -0.25.

Turning to SSSPATKSPLVEELVSWAVG, the growth estimate was less than -0.25.

In the case of THDKGDSARSALDGAIDTGS, the growth estimate is less than -0.25.

In the case of LLKLK, the growth estimate is less than -0.25.

As for YPALESEDDDFNYRRAASES, the growth estimate was less than -0.25.

With VCKVPTYPVGLILV, the growth estimate is less than -0.25.

Take DVGGASSVLCV: the growth estimate is less than -0.25.

On to AVKGNS, for which the growth estimate is less than -0.25.

As to ASAK, the growth estimate was less than -0.25.

On to RHGIEHLALWSCLTVVQEIT, for which the growth estimate is less than -0.25.

DIGKKLILCIHAALAIRGLG: the growth estimate was less than -0.25.

With LDKVII, the growth estimate was less than -0.25.

For the substance LGTDLKR, the growth estimate is less than -0.25.

For HGGDMPS, the growth estimate is less than -0.25.

CTPDKIGHGGHSVSRVRKLT: the growth estimate is less than -0.25.

Regarding GPSEDFRDTIRYRTAIPLPP, the growth estimate was less than -0.25.

On to LRREKGVCPEKYLQNPLALH, for which the growth estimate is less than -0.25.

Take HANSVPLNGWRRTIGALASR: the growth estimate is less than -0.25.

Consider QYARRQNGSEPSLSVGPTTR, for which the growth estimate is less than -0.25.

Take YTCFLAYAVGTVDSRPGRRN: the growth estimate is less than -0.25.

Take FKMSMGDGAFPWATVATRGT: the growth estimate is less than -0.25.

For the substance PSP, the growth estimate is less than -0.25.

As to ELRLKS, the growth estimate was less than -0.25.

Turning to GQVFRSGKMP, the growth estimate is less than -0.25.

Consider PLRHHCVVTHPPSDPFRHNV, for which the growth estimate was less than -0.25.

YFWSRSCGAISPLNYLVGLQ: the growth estimate is less than -0.25.

Consider FVGPAAYTCCIKL, for which the growth estimate was less than -0.25.

Regarding YTAAEPRLEAVSVIARETCS, the growth estimate was less than -0.25.

With RLGPKRPMGPTDG, the growth estimate is less than -0.25.

With DIGECCELAGRKRSPGAVRR, the growth estimate was less than -0.25.

Turning to HQSLSSATCQHSRHGHRDAH, the growth estimate was less than -0.25.

Regarding HYWARPYNCVDKRK, the growth estimate is less than -0.25.

Regarding KCLGMFRVW, the growth estimate is less than -0.25.

In the case of GTYGIVVASAV, the growth estimate was less than -0.25.

With FHHRSPDLEFLLRLFRASLT, the growth estimate is less than -0.25.

As to LCSASVSHLQRSLSGEMIEW, the growth estimate is less than -0.25.

Source of the values: the supplement of paper PMC5949888.
